From article PMC11229306
No constants are given. Whether binding was seen depends on the method and setting. Binding seen in cells or lysates may run through a third protein. A result given as binding can be weak or reduced; the word gives no strength. Where a sequence is shown, tags or fusion partners need not be part of it.

Target: T1, Flag-USP8 (full-length) (UniProt P40818)
T1 sequence: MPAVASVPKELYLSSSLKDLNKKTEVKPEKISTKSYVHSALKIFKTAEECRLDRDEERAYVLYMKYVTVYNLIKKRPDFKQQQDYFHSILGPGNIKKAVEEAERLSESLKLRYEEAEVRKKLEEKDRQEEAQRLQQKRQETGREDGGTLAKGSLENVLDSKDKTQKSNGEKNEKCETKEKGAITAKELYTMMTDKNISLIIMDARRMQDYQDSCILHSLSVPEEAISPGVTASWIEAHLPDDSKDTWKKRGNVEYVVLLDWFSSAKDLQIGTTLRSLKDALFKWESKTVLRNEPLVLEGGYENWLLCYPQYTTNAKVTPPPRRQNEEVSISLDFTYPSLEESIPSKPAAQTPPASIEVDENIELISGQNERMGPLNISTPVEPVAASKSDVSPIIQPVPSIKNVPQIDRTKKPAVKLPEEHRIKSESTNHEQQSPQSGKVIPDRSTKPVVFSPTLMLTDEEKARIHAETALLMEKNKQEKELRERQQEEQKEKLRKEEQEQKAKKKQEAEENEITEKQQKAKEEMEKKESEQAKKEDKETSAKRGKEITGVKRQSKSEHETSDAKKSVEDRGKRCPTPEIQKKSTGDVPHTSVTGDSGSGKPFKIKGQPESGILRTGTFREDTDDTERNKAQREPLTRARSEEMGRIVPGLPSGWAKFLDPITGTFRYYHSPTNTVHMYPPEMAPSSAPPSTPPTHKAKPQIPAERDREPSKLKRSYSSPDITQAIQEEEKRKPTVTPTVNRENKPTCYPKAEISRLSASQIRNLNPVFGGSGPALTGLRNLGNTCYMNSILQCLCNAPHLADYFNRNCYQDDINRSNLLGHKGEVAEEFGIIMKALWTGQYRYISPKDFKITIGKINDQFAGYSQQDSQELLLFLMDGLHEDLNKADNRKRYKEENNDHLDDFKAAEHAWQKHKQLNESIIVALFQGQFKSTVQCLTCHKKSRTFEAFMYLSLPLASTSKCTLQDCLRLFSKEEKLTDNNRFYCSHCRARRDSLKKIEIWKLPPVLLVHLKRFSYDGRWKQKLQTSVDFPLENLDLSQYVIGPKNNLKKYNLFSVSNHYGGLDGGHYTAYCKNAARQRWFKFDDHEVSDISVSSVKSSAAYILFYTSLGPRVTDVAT
Test: co-IP; HEK293 cells transfected with Myc-OGT full-length or deletion mutants and 2 μg Flag-USP8, NP-40 lysis buffer after 24 h, Flag antibody for co-IP, Myc antibody for detection

Row | binding | Substance
1 | binds | OGT GT domain, Myc-tagged deletion mutant (domain or fragment)
2 | binds | OGT TPR domain, Myc-tagged deletion mutant (domain or fragment)
